Assay results reported in the supplement of paper PMC5949888.
Most values lie at the floor of the assay. Slopes are relative: functional sequences can read slightly below zero.

test system: Saccharomyces cerevisiae PS128 hsf1 delta, HSF1(1-493) fusion; test: growth estimate (transactivation domain function in HSF1 fusion, heat-shock survival) (a.u. (slope of normalised read count over time)); higher = stronger growth at 37°C, i.e. more transactivation activity; conditions: library: random library

| Substance | growth estimate |
| --- | --- |
| RQNWFSVRLEDTLQPLGQG | < -0.25 |
| RQPELLPTLTIDRAAMD | < -0.25 |
| RQPLSLSAPVVLLCRWPTST | < -0.25 |
| RQQDRVYGLRWGLAGSKWVG | -0.246 |
| RQRFFSACVHVKRYHKHLRA | < -0.25 |
| RQSSECVRFHGRLAPRRRTG | < -0.25 |
| RQSTDELHLLS | < -0.25 |
| RQTAI | < -0.25 |
| RQTS | < -0.25 |
| RQVGLKAQR | < -0.25 |
| RQVKGSLSNAIDYRGSLLAE | < -0.25 |
| RQYTALQRHTSTVPCQVRNQ | < -0.25 |
| RQYYRSRRYEPILCTNHIIL | < -0.25 |
| RRA | < -0.25 |
| RRAIVGWLCTA | < -0.25 |
| RRALIY | < -0.25 |
| RRANRSDQVSFIIAACNFAK | < -0.25 |
| RRASVTRSSACGVKMIISAR | < -0.25 |
| RRAVERRGPSGVTPLWYTPG | < -0.25 |
| RRAYVGLPGLTVSSSSKRIH | -0.231 |
| RRCAGHVSLRCNLWSGRSQP | < -0.25 |
| RRCCMSKVFRSSGYVPRAGP | < -0.25 |
| RRCLHARVHEVPEAILMITV | < -0.25 |
| RRCRG | < -0.25 |

Copied from the results shown (16 entries):

| Substance | growth estimate |
| --- | --- |
| RQSTDELHLLS | < -0.25 |
| RQTAI | < -0.25 |
| RQTS | < -0.25 |
| RQVGLKAQR | < -0.25 |
| RQVKGSLSNAIDYRGSLLAE | < -0.25 |
| RQYTALQRHTSTVPCQVRNQ | < -0.25 |
| RQYYRSRRYEPILCTNHIIL | < -0.25 |
| RRA | < -0.25 |
| RRAIVGWLCTA | < -0.25 |
| RRALIY | < -0.25 |
| RRANRSDQVSFIIAACNFAK | < -0.25 |
| RRASVTRSSACGVKMIISAR | < -0.25 |
| RRAVERRGPSGVTPLWYTPG | < -0.25 |
| RRAYVGLPGLTVSSSSKRIH | -0.231 |
| RRCAGHVSLRCNLWSGRSQP | < -0.25 |
| RRCCMSKVFRSSGYVPRAGP | < -0.25 |

(cont.)

| Substance | growth estimate |
| --- | --- |
| RRCSGRRG | < -0.25 |
| RRDRTSYCCDDSVFKGGNHG | < -0.25 |
| RREQLERRNEYSPMRSHSWI | < -0.25 |
| RRF | < -0.25 |
| RRFESTVGR | < -0.25 |
| RRFFGRDSC | < -0.25 |
| RRFKTHDSGLS | < -0.25 |
| RRFTVRL | < -0.25 |
| RRGIILNIRSGSLP | < -0.25 |
| RRGKTPIRHGILLPRSISGR | < -0.25 |
| RRGLLQSEV | < -0.25 |
| RRGPPVLSSREDPGTTVEAV | < -0.25 |
| RRGRITAHEES | < -0.25 |
| RRGSLQAGREIVVMGTRCPL | < -0.25 |
| RRGVCLELCL | < -0.25 |
| RRGVYRPVSRGGLSIG | < -0.25 |
| RRIDSFFSL | < -0.25 |
| RRIYYAILCTSTYESRAAPC | < -0.25 |
| RRLCISSTIVFSVKKEGA | < -0.25 |
| RRLGRVKAPGQMCT | < -0.25 |
| RRLGSEMTFFPMSRLCHPKR | < -0.25 |
| RRLLGMPVSAGVSSSPVSA | < -0.25 |
| RRLPKSLYSKD | < -0.25 |
| RRLVGNGLGLRCNKSRTIPN | < -0.25 |

| Substance | growth estimate |
| --- | --- |
| RRLVSEGLVHWWCTELVLLN | < -0.25 |
| RRLVSLALSAVPRLKGIVET | < -0.25 |
| RRMGAYSRRALDHRNPHRCP | < -0.25 |
| RRMNYF | < -0.25 |
| RRNFWFVGPIHLSILASPQH | < -0.25 |
| RRNGSWAPSAM | -0.246 |
| RRNQLEQHPGSKSQPG | < -0.25 |
| RRPDPVGLDRFILSRKPRSA | < -0.25 |
| RRPGRLQQATSC | < -0.25 |
| RRPLGMGH | < -0.25 |
| RRPSWPQDRGTFSWSANVLA | < -0.25 |
| RRPSYLRSYTRTRTTGLKVD | < -0.25 |
| RRQFTTLSAKK | < -0.25 |
| RRQSVVFNSALPKGLARRRR | < -0.25 |
| RRQV | < -0.25 |
| RRRFIVGLNFALCCRFTLVR | < -0.25 |
| RRRFKTRSAVSQETQEVPTK | < -0.25 |
| RRRGGRRHVGTVDGEGTRN | < -0.25 |
| RRRGWAVEAARRVESRLMGP | < -0.25 |
| RRRIFLGNSIRAPI | < -0.25 |
| RRRITSARSPLIAIPDGLSG | < -0.25 |
| RRRN | < -0.25 |
| RRRPHSVTAPARCKPFTIAS | < -0.25 |
